Data taken from PMC6481990.
Read-outs that look alike come from different tables or passages of the source. These are yes or no findings as the source states them, for the method shown. In cells and extracts the contact can be indirect. Some results given as binding are weak or reduced against the parent protein; the word gives no strength.

The chains behind the UniProt entries cited, without tags or fusion partners.
UniProt P63141: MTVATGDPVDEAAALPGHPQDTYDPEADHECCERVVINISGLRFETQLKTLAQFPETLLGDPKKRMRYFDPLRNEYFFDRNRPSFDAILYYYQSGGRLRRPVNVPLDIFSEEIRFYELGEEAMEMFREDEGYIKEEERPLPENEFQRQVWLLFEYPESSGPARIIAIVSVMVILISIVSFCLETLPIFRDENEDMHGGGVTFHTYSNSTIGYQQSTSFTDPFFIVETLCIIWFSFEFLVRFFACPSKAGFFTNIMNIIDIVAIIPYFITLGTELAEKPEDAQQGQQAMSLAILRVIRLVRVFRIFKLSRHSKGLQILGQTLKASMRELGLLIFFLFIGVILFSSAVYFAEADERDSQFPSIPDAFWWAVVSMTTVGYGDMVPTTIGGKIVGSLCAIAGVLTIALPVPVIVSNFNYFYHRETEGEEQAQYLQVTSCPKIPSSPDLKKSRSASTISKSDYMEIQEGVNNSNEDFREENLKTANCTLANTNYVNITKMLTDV
UniProt O88427: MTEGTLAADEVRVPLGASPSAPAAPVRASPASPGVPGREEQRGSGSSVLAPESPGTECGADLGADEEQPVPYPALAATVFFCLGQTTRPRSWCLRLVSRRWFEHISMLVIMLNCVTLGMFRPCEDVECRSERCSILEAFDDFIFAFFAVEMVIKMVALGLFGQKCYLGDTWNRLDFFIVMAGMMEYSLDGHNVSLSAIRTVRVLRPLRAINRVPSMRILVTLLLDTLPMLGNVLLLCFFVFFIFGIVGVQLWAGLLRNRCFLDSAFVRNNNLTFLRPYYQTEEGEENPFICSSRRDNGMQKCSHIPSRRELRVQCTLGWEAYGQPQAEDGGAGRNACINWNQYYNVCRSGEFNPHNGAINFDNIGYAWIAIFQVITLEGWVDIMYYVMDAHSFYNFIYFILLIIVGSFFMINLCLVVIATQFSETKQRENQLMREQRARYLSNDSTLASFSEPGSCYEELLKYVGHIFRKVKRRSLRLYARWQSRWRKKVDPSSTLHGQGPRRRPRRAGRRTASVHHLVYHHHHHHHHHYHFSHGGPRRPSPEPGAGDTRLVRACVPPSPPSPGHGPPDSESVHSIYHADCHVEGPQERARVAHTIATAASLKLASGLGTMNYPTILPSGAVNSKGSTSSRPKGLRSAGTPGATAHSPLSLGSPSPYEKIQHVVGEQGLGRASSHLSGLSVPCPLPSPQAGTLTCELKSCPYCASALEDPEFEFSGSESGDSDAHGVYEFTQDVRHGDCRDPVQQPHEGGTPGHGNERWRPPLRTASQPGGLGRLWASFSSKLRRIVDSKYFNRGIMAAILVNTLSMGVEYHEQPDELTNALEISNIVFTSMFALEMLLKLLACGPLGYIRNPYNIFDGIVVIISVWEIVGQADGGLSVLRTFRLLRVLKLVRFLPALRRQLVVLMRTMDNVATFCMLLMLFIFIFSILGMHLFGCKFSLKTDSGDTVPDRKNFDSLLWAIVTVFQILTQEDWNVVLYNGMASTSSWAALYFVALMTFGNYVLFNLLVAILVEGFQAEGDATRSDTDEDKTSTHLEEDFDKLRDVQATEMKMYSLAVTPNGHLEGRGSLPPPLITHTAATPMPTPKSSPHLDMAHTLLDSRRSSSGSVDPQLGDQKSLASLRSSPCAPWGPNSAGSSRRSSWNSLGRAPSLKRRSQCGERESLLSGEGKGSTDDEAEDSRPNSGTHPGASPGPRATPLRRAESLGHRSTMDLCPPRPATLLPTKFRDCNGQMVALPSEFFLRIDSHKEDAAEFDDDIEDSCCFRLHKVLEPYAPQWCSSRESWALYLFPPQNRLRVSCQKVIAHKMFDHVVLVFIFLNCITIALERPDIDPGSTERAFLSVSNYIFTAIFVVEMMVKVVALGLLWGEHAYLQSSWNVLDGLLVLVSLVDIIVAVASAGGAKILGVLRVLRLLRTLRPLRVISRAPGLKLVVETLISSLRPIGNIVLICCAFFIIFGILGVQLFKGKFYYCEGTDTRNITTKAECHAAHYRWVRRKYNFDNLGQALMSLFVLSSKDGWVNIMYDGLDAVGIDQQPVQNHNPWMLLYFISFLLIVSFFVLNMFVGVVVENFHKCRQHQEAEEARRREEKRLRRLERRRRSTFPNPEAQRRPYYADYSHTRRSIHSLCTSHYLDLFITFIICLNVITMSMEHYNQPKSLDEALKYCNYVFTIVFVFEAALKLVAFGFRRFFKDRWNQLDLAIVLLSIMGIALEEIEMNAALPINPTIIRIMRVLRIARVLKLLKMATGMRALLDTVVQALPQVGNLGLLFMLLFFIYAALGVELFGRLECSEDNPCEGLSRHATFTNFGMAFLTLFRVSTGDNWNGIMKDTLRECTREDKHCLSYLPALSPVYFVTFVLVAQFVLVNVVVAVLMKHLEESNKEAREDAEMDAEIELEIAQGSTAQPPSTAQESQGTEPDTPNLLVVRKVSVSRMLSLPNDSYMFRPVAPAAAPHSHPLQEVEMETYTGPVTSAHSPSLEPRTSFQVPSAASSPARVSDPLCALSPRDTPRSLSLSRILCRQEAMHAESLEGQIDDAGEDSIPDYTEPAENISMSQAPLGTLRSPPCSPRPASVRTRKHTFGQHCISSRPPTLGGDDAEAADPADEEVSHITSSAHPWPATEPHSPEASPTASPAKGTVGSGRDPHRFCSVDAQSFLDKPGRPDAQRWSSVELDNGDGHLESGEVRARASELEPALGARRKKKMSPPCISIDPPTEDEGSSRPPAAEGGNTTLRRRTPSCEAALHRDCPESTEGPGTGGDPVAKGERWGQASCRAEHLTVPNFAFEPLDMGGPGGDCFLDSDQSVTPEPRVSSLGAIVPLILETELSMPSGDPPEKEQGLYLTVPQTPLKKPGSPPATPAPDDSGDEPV
UniProt Q99246: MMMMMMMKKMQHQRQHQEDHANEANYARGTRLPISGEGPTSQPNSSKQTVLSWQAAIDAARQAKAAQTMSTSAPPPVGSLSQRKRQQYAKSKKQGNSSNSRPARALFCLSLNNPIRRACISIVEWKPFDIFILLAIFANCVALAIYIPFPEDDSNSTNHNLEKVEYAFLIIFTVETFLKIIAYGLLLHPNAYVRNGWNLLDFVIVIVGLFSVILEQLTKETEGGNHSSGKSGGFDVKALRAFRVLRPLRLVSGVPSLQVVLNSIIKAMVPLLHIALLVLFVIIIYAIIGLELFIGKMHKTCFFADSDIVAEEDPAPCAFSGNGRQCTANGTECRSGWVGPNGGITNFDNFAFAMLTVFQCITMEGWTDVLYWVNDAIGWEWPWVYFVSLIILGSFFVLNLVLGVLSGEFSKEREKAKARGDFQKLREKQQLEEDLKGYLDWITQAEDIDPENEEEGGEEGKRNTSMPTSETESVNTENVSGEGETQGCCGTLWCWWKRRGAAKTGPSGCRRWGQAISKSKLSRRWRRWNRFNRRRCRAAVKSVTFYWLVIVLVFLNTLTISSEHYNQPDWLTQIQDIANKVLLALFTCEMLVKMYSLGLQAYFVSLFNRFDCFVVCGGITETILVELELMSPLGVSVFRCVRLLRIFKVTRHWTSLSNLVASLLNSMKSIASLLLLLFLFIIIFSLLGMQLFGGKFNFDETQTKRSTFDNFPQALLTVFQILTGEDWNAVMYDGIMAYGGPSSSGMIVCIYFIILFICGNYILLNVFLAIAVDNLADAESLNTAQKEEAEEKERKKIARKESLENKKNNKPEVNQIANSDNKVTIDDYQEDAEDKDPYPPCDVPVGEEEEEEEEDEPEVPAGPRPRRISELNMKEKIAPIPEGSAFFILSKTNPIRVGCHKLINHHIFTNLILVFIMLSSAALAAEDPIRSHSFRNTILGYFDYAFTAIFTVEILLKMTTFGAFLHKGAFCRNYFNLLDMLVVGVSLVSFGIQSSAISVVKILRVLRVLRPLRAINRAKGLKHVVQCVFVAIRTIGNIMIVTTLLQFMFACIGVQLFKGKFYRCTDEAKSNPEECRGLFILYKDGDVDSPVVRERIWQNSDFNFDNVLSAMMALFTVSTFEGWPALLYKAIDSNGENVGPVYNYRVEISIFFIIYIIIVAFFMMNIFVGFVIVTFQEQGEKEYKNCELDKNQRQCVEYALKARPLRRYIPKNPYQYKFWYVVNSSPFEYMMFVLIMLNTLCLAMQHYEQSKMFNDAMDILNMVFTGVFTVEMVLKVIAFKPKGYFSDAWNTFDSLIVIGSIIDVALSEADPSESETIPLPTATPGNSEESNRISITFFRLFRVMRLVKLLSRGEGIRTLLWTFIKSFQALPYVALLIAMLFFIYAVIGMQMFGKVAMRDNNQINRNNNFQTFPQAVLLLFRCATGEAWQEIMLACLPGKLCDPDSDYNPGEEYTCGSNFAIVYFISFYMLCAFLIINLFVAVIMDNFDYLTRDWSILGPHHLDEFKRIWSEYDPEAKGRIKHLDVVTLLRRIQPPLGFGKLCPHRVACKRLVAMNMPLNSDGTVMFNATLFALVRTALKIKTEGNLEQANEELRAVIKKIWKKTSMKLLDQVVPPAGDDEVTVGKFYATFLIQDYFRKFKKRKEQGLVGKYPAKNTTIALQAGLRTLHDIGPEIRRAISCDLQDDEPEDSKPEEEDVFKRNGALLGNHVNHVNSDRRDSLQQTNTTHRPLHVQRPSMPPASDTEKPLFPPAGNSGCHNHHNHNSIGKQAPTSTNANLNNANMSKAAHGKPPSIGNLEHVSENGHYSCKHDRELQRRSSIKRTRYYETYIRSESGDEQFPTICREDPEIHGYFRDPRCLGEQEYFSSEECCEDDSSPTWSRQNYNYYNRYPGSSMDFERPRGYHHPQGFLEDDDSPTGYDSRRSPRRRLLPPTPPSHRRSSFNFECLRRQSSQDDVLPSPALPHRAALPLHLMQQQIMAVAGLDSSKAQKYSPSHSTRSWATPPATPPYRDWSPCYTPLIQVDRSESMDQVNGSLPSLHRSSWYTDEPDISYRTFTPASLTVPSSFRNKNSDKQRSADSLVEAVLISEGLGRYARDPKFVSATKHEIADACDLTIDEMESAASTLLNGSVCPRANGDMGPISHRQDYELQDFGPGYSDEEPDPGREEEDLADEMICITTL

T1: Kv4.2 potassium channel subunit (mouse (endogenous in striatum)) (UniProt Q9Z0V2)
T1 sequence: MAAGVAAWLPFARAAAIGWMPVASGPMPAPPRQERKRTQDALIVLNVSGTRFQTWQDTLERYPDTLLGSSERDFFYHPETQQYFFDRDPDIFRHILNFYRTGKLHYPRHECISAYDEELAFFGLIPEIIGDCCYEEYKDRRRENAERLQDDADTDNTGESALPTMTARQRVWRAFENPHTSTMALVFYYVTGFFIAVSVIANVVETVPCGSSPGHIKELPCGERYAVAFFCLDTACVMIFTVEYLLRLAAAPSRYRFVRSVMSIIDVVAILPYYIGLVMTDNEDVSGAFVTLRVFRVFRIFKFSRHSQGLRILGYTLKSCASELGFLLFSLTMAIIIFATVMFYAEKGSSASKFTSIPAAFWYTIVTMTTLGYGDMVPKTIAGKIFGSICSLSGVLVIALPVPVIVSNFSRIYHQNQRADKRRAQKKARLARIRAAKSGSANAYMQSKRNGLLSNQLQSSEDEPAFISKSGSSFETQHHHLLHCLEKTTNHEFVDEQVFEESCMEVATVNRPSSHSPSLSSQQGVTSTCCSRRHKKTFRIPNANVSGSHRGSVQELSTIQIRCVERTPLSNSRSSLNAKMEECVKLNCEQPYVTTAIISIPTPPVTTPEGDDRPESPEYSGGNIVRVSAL


How the values were obtained:
[1] = target: T1, Kv4.2 potassium channel subunit (mouse (endogenous in striatum)); test: co-IP; goat anti-Kv4.2 antibody (C20), 5 ug, with 200 ug membrane protein of mouse dorsal striatum lysate (wild-type or Q175 het, 6-8 months) overnight at 4 C, protein A/G magnetic beads, Western blot; in some experiments slices were incubated before with 50 ng/ml BDNF for 20 min, or 200 nM ROCK inhibitor SR3850 then BDNF
[2] = target: T1, Kv4.2 potassium channel subunit (mouse (endogenous in striatum)); test: as above; remark: listed apart in the source
[3] = target: Kv1.2 potassium channel subunit (mouse (endogenous in striatum)) (UniProt P63141); test: co-IP; rabbit anti-Kv1.2 antibody (ThermoFisher PA5-23006), 5 ug, with 200 ug membrane protein of mouse dorsal striatum lysate overnight at 4 C, protein A/G magnetic beads, Western blot for KChIP2

| Molecule | binding [1] | binding [2] | binding [3] |
| --- | --- | --- | --- |
| Cav3.2 Ca2+ channel subunit (from UniProt O88427 1-2365) | binds | – | – |
| KChIP2 (protein, UniProt Q9JJ69 1-270) MRGQGRKESLSDSRDLDGSYDQLTGHPPGPSKKALKQRFLKLLPCCGPQALPSVSETLAAPASLRPHRPRPLDPDSVEDEFELSTVCHRPEGLEQLQEQTKFTRRELQVLYRGFKNECPSGIVNEENFKQIYSQFFPQGDSSNYATFLFNAFDTNHDGSVSFEDFVAGLSVILRGTIDDRLNWAFNLYDLNKDGCITKEEMLDIMKSIYDMMGKYTYPALREEAPREHVESFFQKMDRNKDGVVTIEEFIESCQQDENIMRSMQLFDNVI | – | binds | no binding |

The remaining lines, values ahead:

| binding [1] | binding [2] | binding [3] | Molecule |
| --- | --- | --- | --- |
| no binding | – | – | Cav1.3 Ca2+ channel (from UniProt Q99246 1-2179) |
| – | binds | – | KChIP1 (protein, UniProt Q9JJ57 1-227) MGAVMGTFSSLQTKQRRPSKDIAWWYYQYQRDKIEDELEMTMVCHRPEGLEQLEAQTNFTKRELQVLYRGFKNECPSGVVNEETFKQIYAQFFPHGDASTYAHYLFNAFDTTQTGSVKFEDFVTALSILLRGTVHEKLRWTFNLYDINKDGYINKEEMMDIVKAIYDMMGKYTYPVLKEDTPRQHVDVFFQKMDKNKDGIVTLDEFLESCQEDDNIMRSLQLFQNVM |
